Test results reported in publication PMC8663777.
Results are given in words; binding and its absence hold for the method and conditions named. In cells and extracts the contact can be indirect. Some results given as binding are weak or reduced against the parent protein; the word gives no strength. Sequences can lack the tags named with a protein.

Chains of the proteins cited; added tags and fusions are not shown.
UniProt Q15796: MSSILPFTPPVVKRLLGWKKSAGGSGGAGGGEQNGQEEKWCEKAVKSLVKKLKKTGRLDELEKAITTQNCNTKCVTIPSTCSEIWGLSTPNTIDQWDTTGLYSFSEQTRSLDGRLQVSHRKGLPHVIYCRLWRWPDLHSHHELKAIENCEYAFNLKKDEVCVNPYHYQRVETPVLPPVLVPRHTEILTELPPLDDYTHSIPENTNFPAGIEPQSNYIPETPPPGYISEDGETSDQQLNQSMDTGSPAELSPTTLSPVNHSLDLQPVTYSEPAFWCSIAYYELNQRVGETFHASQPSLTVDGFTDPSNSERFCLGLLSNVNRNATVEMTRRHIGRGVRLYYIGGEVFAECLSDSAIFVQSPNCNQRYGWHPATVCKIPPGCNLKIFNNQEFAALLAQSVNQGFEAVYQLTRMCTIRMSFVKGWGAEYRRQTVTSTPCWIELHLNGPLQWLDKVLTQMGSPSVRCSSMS
UniProt Q13485: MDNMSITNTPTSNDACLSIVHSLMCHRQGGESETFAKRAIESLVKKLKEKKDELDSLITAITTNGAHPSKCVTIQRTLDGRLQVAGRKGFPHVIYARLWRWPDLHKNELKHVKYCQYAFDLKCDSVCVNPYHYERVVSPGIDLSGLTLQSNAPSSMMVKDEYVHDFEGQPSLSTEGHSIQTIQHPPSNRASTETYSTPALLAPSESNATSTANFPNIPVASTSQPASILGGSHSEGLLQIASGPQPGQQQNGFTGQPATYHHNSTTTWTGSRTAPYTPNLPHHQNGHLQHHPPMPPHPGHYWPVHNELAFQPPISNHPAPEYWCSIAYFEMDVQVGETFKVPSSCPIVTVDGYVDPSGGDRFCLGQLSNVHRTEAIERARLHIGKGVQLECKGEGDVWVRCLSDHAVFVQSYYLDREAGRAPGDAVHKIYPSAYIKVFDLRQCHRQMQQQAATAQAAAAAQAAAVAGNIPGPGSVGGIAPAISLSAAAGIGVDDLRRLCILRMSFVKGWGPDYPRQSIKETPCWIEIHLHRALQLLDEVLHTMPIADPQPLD

Assays:
[1] = molecular target: SMAD2 (human (endogenous in HEK293T)) (UniProt Q15796); assay: co-IP; lysate of HEK293T cells transfected with Myc-tagged HDAC7 (48 h); lysis buffer 20 mM Tris-HCl, 150 mM NaCl, 0.3% Nonidet P-40, 10% glycerol, pH 7.5; endogenous SMADs immunoprecipitated with anti-SMAD4 or anti-SMAD2 (16 h, protein A/G-agarose), immunoblot for Myc; control IgG
[2] = molecular target: SMAD4 (human (endogenous in HEK293T)) (UniProt Q13485); assay: as above

binding [1]: binds | binding [2]: binds
B1: Myc-tagged HDAC7 (protein, UniProt Q8WUI4 1-952)
chain: MDLRVGQRPPVEPPPEPTLLALQRPQRLHHHLFLAGLQQQRSVEPMRLSMDTPMPELQVGPQEQELRQLLHKDKSKRSAVASSVVKQKLAEVILKKQQAALERTVHPNSPGIPYRTLEPLETEGATRSMLSSFLPPVPSLPSDPPEHFPLRKTVSEPNLKLRYKPKKSLERRKNPLLRKESAPPSLRRRPAETLGDSSPSSSSTPASGCSSPNDSEHGPNPILGSEALLGQRLRLQETSVAPFALPTVSLLPAITLGLPAPARADSDRRTHPTLGPRGPILGSPHTPLFLPHGLEPEAGGTLPSRLQPILLLDPSGSHAPLLTVPGLGPLPFHFAQSLMTTERLSGSGLHWPLSRTRSEPLPPSATAPPPPGPMQPRLEQLKTHVQVIKRSAKPSEKPRLRQIPSAEDLETDGGGPGQVVDDGLEHRELGHGQPEARGPAPLQQHPQVLLWEQQRLAGRLPRGSTGDTVLLPLAQGGHRPLSRAQSSPAAPASLSAPEPASQARVLSSSETPARTLPFTTGLIYDSVMLKHQCSCGDNSRHPEHAGRIQSIWSRLQERGLRSQCECLRGRKASLEELQSVHSERHVLLYGTNPLSRLKLDNGKLAGLLAQRMFVMLPCGGVGVDTDTIWNELHSSNAARWAAGSVTDLAFKVASRELKNGFAVVRPPGHHADHSTAMGFCFFNSVAIACRQLQQQSKASKILIVDWDVHHGNGTQQTFYQDPSVLYISLHRHDDGNFFPGSGAVDEVGAGSGEGFNVNVAWAGGLDPPMGDPEYLAAFRIVVMPIAREFSPDLVLVSAGFDAAEGHPAPLGGYHVSAKCFGYMTQQLMNLAGGAVVLALEGGHDLTAICDASEACVAALLGNRVDPLSEEGWKQKPNLNAIRSLEAVIRVHSKYWGCMQRLASCPDSWVPRVPGADKEEVEAVTALASLSVGILAEDRPSEQLVEEEEPMNL
